Patent publication US12029742B2, “Compositions and methods for the repair of myelin” (Duke University, priority 2014, dated 2024)

Assay: Mass spectrometry detection of oxysterols in human breast milk
Settings: freshly pumped human breast milk, frozen at −80° C. or stored at 4° C. for six days; FIG. 7

Compound	level detected in human breast milk by mass spectrometry
CC(C)CCC[C@](C)(O)[C@H]1CC[C@H]2[C@@H]3CC=C4C[C@@H](O)CC[C@]4(C)[C@H]3CC[C@@]21C [20α-hydroxycholesterol]	not detected
CC(C)C(O)CC[C@@H](C)[C@H]1CC[C@H]2[C@@H]3CC=C4C[C@@H](O)CC[C@]4(C)[C@H]3CC[C@]12C (stereo partly shown) [24-hydroxycholesterol]	abundant levels
C[C@H](CCCC(C)(C)O)[C@H]1CC[C@H]2[C@@H]3CC=C4C[C@@H](O)CC[C@]4(C)[C@H]3CC[C@]12C [25-hydroxycholesterol]	abundant levels
C[C@@H](CO)CCC[C@@H](C)[C@H]1CC[C@H]2[C@@H]3CC=C4C[C@@H](O)CC[C@]4(C)[C@H]3CC[C@]12C [27-hydroxycholesterol]	abundant levels
